# Test results from publication PMC2561291.
# Sequences of proteins named here, by UniProt entry; tags and fusion partners are left off. Residues count along the entry.
# UniProt Q9QUK6, residues 661-835: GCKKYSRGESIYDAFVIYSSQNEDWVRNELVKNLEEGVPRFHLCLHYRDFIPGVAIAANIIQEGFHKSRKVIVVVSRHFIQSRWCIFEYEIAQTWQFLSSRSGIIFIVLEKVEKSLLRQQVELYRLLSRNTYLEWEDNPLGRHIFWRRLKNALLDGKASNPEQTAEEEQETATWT
# UniProt P22366: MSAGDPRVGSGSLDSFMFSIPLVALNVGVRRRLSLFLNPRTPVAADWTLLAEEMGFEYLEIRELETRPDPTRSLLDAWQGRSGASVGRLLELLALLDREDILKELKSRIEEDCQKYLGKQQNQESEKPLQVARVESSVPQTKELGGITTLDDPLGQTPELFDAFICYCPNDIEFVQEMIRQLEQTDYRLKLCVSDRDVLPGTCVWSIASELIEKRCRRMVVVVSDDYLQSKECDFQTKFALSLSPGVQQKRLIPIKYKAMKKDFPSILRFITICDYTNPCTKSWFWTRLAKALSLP
# UniProt Q8BJQ4: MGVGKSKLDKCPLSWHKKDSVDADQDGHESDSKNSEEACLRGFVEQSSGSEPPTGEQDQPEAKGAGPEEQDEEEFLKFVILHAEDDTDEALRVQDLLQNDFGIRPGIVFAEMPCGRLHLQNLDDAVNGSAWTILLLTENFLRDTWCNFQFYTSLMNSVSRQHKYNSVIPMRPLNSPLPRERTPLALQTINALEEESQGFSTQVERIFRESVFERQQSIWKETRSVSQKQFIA
# These are yes or no findings as the source states them, for the method shown. In cells and extracts the contact can be indirect. Some entries that bind do so weakly or less than the wild type.
# Molecular target: GST fused to the TLR4 cytoplasmic tail (mouse TLR4 amino acids 661-835) (mouse) (UniProt Q9QUK6)
# Test: pull-down; GST-TLR4 or GST co-expressed in HEK293T with Flag-TRAM and increasing amounts of Myc-MyD88; lysis in TNE buffer (10 mM Tris-HCl pH 7.5, 150 mM NaCl, 1 mM EDTA, 1% NP-40); Glutathione-Sepharose beads 30 min at 4°C; Western blot with anti-Flag, anti-Myc, anti-GST
row,binding,Substance
1,binds,Myc-tagged MyD88 (mouse) (from UniProt P22366 1-296)
2,binds,Flag-tagged TRAM (mouse) (from UniProt Q8BJQ4 1-232)
